Here are results for one sequence from article PMC7496117, “A zinc finger protein BBX19 interacts with ABF3 to affect drought tolerance negatively in chrysanthemum”.

The exact form of at least one protein or probe is not confirmed. Negatives hold for the conditions tested.

The subject of this series is GST-CmBBX19 (Chrysanthemum morifolium). Put plainly: EMSA. The following applies: 3 ug protein, LightShift Chemiluminescent EMSA kit, 20 ul reaction, biotin probe 50 nM or 2 nM (Methods), pH and temperature not stated, recombinant protein, protein details: GST (N-terminal, pGEX). On the technique in general: A gel shift assay detects complexes by their altered migration in electrophoresis.

For “GAAATTAGACACGTACTTTTCAGTGATAACATAAACATACTTACGTGTTC (double strand) [proRAB18-probe (CmRAB18 promoter, two ABRE motifs)]”, the binding result is reported as “no binding”.
